Data as given in PubChem BioAssay AID504793 (Drosophila RNAi Screening Center, 2011)
In all, the deposit lists about 23,000 reagents; this is a random part of those that have a named target and a result. Of all reagents, 62 (0.27%) are marked active. 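Calls come from follow-up tests whose scores are not deposited, so confirmed genes may have low counts here; counts are not normalised per plate.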 Raw values are not corrected between plates. Unmarked entries are inactive. The numbers tell different reagents against one gene apart. Names joined by + are all predicted targets of the reagent.

Assay: 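Genes required for cells to halt at G2/M after double-strand DNA breaks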 (primary screen)
Cells: Drosophila S2R+ cells
Reagent: long dsRNA against Drosophila genes, about 0.25 µg dsRNA per well
Duration: 4 days of dsRNA, then 4 hours of drug before read-out
Treatment: doxorubicin 0.5 µM for 4 hours to cause double-strand breaks, in cells also given a low, harmless dose of dsRNA against nbs to sensitise the assay
Measured: 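Per-well count of mitotic cells stained for phospho-histone H3 after doxorubicin exposure, used as mitotic index; counts are raw and not normalised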
Reading the numbers: mitotic cells: higher = more cells in mitosis, weaker G2 arrest
Rule for the call: 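a call needs confirmation in secondary tests, with other dsRNAs and a check of mitotic timing without damage, not just a high primary count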
Calls: active = confirmed in follow-up tests; inactive = not confirmed

| gene knocked down | reagent | mitotic cells, replicate 1 | mitotic cells, replicate 2 |
| --- | --- | --- | --- |
| CG17344 | 1 | 6 | – |
| Rsbp15 (Radial spoke binding protein 15) | 1 | 6 | – |
| Rsbp15 (Radial spoke binding protein 15) | 2 | 7 | – |
| grau (grauzone) | 1 | 7 | – |
| grau (grauzone) | 2 | 7 | – |
| upSET | 1 | 10 | – |
| CG12134 | 1 | 8 | – |
| CG12134 | 2 | 5 | – |
| Bgb | 1 | 7 | – |
| Bgb | 2 | 2 | – |
| wdp (windpipe) | 1 | 7 | – |
| wdp (windpipe) | 2 | 3 | – |
| SrpRbeta (Signal recognition particle receptor beta) | 1 | 6 | – |
| SrpRbeta (Signal recognition particle receptor beta) | 2 | 8 | – |
| Oseg4 (Outer segment 4) | 1 | 6 | – |
| ProtA (Protamine A) | 1 | 9 | – |
| CG15754 | 1 | 11 | – |
| CG15754 | 2 | 7 | – |
| Sfmbt (Scm-related gene containing four mbt domains) | 1 | 8 | – |
| Sfmbt (Scm-related gene containing four mbt domains) | 2 | 11 | – |
| COX6CL (Cytochrome c oxidase subunit 6C-like) | 1 | 5 | – |
| Hsc70-3 (Heat shock protein 70 cognate 3) | 1 | 11 | – |
| Hsc70-3 (Heat shock protein 70 cognate 3) | 2 | 13 | – |
| U3-55K (U3 small nuclear riboprotein factor 55K) | 1 | 3 | – |
| U3-55K (U3 small nuclear riboprotein factor 55K) | 2 | 8 | – |
| CG31875 | 1 | 10 | – |
| Mocs2A + Mocs2B | 1 | 13 | – |
| Mocs2A + Mocs2B | 2 | 5 | – |
| CG31788 | 1 | 7 | – |
| CG31869 | 1 | 2 | – |
| CG31869 | 2 | 5 | – |
| pch2 (pachytene checkpoint 2) | 1 | 2 | – |
| Gal (beta galactosidase) | 1 | 9 | – |
| Gal (beta galactosidase) | 2 | 7 | – |
| CG43867 | 1 | 5 | – |
| CG43867 | 2 | 8 | – |
| CG43867 | 3 | 5 | – |
| CG43867 | 4 | 5 | – |
| CG13675 | 1 | 8 | – |
| Gss1 + Gss2 | 1 | 8 | – |
| Gss1 + Gss2 | 2 | 7 | – |
| Rep (Rab escort protein) | 1 | 5 | – |
| SdhBL (Succinate dehydrogenase, subunit B (iron-sulfur)-like) | 1 | 8 | – |
| Ugt37E1 (UDP-glycosyltransferase family 37 member E1) | 1 | 6 | – |
| Ugt37E1 (UDP-glycosyltransferase family 37 member E1) | 2 | 4 | – |
| CG12011 | 1 | 6 | – |
| CG12011 | 2 | 11 | – |
| Cp7Fa (Chorion protein a at 7F) | 1 | 13 | – |
| Cp7Fa (Chorion protein a at 7F) | 2 | 16 | – |
| Cp7Fa (Chorion protein a at 7F) | 3 | 8 | – |
| CG5071 | 1 | 8 | – |
| CG5071 | 2 | 10 | – |
| CG5071 | 3 | 7 | – |
| CG17267 | 1 | 9 | – |
| CG13895 | 1 | 15 | – |
| CG32643 | 1 | 8 | – |
| Act57B (Actin 57B) | 1 | 2 | – |
| Snmp2 (Sensory neuron membrane protein 2) | 1 | 5 | – |
| Snmp2 (Sensory neuron membrane protein 2) | 2 | 6 | – |
| CG14007 | 1 | 4 | – |
| GlcAT-P (Glucuronyltransferase P) | 1 | 3 | – |
| GlcAT-P (Glucuronyltransferase P) | 2 | 3 | – |
| dmGlut (Dietary and metabolic glutamate transporter) | 1 | 9 | – |
| dmGlut (Dietary and metabolic glutamate transporter) | 2 | 4 | – |
| CG3287 (retired record) | 1 | 5 | – |
| IKKbeta (I-kappaB kinase beta) | 1 | 9 | – |
| Jhbp11 (Juvenile hormone binding protein 11) | 1 | 10 | – |
| Jhbp11 (Juvenile hormone binding protein 11) | 2 | 7 | – |
| CG14673 (retired record) | 1 | 2 | – |
| Set8 (SET domain containing 8) | 1 | 13 | – |
| Set8 (SET domain containing 8) | 2 | 8 | – |
| AnxB11 (Annexin B11) | 1 | 6 | – |
| AnxB11 (Annexin B11) | 2 | 12 | – |
| CG13203 | 1 | 6 | – |
| CG13203 | 2 | 5 | – |
| Cpsf160 (Cleavage and polyadenylation specificity factor 160) | 1 | 6 | – |
| kek5 (kekkon 5) | 1 | 7 | – |
| kek5 (kekkon 5) | 2 | 6 | – |
| X11L | 1 | 9 | – |
| X11L | 2 | 11 | – |
| X11L | 3 | 6 | – |
| Rrp47 (Ribosomal RNA processing 47) | 1 | 4 | – |
| Rrp47 (Ribosomal RNA processing 47) | 2 | 12 | – |
| CG15643 | 1 | 12 | – |
| CG15643 | 2 | 6 | – |
| Trap1 | 1 | 8 | – |
| Zw10 (Zeste-white 10) | 1 | 4 | – |
| Zw10 (Zeste-white 10) | 2 | 3 | – |
| CG7376 | 1 | 8 | – |
| RpL34b (Ribosomal protein L34b) | 1 | 5 | – |
| Ada1-1 + Ada1-2 | 1 | 4 | – |
| Ada1-1 + Ada1-2 | 2 | 7 | – |
| Ada1-1 + Ada1-2 | 3 | 8 | – |
| lmd (lame duck) | 1 | 6 | – |
| lmd (lame duck) | 2 | 3 | – |
| CG4716 | 1 | 14 | – |
| CG4716 | 2 | 7 | – |
| CG11977 | 1 | 9 | – |
| mRpS28 (mitochondrial ribosomal protein S28) | 1 | 6 | – |
| CG13723 | 1 | 4 | – |
| Pglym78 (Phosphoglyceromutase 78) | 1 | 9 | – |
| Pglym78 (Phosphoglyceromutase 78) | 2 | 4 | – |
| TRAM | 1 | 10 | – |
| TRAM | 2 | 10 | – |
| CG32767 | 1 | 9 | – |
| CG32767 | 2 | 4 | – |
| kcc (kazachoc) | 1 | 8 | – |
| kcc (kazachoc) | 2 | 4 | – |
| CG31463 | 1 | 1 | – |
| CG31463 | 2 | 8 | – |
| Arp8 (Actin-related protein 8) | 1 | 5 | – |
| Arp8 (Actin-related protein 8) | 2 | 4 | – |
| CG42758 | 1 | 1 | – |
| CG11741 | 1 | 6 | – |
| HP6 (Heterochromatin protein 6) | 1 | 7 | – |
| CG3184 | 1 | 3 | – |
| nan (nanchung) | 1 | 4 | – |
| Wdr24 (WD repeat domain 24) | 1 | 10 | – |
| CG1636 | 1 | 6 | 15 |
| amos (absent MD neurons and olfactory sensilla) | 1 | 5 | – |
| amos (absent MD neurons and olfactory sensilla) | 2 | 8 | – |
| CG13310 | 1 | 3 | – |
| CG13310 | 2 | 2 | – |
| rno (rhinoceros) | 1 | 10 | – |
| Alk (Anaplastic lymphoma kinase) | 1 | 8 | – |
| Alk (Anaplastic lymphoma kinase) | 2 | 7 | – |
| pdm2 (POU domain protein 2) | 1 | 4 | – |
| pdm2 (POU domain protein 2) | 2 | 4 | – |
| Hsf (Heat shock factor) | 1 | 4 | – |
| Hsf (Heat shock factor) | 2 | 8 | – |
| peng (penguin) | 1 | 7 | – |
| peng (penguin) | 2 | 6 | – |
| CG31191 | 1 | 12 | – |
| EMC6 (ER membrane protein complex subunit 6) | 1 | 11 | – |
| Polr2H (RNA polymerase II, I and III subunit H) | 1 | 20 (active) | – |
| sv (shaven) | 1 | 6 | – |
| sv (shaven) | 2 | 3 | – |
| frtz (fritz) | 1 | 7 | – |
| CG34348 | 1 | 4 | – |
| CG34348 | 2 | 10 | – |

Called active, among the entries above:
| gene knocked down | reagent | mitotic cells, replicate 1 | mitotic cells, replicate 2 |
| --- | --- | --- | --- |
| Polr2H (RNA polymerase II, I and III subunit H) | 1 | 20 (active) | – |
